In publication PMC9107676:
Results are given in words; binding and its absence hold for the method and conditions named. In cells and extracts the contact can be indirect. Binding calls can cover weak binding; strength is not graded here. Tags and fused reporters may be left off the sequences shown.

What was measured:
Assay in all cases: co-IP; HEK293T cells transfected with Flag-HnRNP F (WT or deletion mutants) with or without pCAGGS-HA-N; lysed in RIPA buffer; immunoprecipitation with the indicated antibody (anti-Flag) overnight at 4 °C, protein A + G beads, five washes with RIPA; western blotting
[1] = target: T1, Flag-tagged full-length porcine HnRNP F (heterogeneous nuclear ribonucleoprotein F) (porcine) (UniProt F1RG16)
T1 sequence: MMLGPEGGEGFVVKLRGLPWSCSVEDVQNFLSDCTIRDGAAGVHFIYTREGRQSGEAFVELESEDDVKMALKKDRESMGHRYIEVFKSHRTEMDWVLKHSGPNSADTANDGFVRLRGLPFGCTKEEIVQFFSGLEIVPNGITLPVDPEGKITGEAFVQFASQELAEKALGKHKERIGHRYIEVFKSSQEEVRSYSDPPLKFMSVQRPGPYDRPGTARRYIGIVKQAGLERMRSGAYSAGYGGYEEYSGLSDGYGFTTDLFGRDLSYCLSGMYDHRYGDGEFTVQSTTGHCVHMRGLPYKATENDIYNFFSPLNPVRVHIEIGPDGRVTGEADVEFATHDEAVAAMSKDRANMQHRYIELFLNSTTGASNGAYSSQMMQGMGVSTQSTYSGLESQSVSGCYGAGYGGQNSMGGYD

[2] = target: T2, Flag-tagged porcine HnRNP F deletion mutant lacking the qRRM3 domain (residues 289-414) (porcine) (UniProt F1RG16)
T2 sequence: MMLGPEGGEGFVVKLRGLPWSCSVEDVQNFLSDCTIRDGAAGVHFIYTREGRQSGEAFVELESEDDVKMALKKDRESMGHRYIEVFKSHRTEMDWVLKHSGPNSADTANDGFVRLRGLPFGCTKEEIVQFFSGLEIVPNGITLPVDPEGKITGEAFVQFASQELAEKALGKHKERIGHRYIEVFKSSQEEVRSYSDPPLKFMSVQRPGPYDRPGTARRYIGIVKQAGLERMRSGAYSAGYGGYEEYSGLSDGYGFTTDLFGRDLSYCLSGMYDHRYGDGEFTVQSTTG

[3] = target: T3, Flag-tagged porcine HnRNP F deletion mutant lacking the qRRM2 domain (residues 111-188) (porcine) (UniProt F1RG16)
T3 sequence: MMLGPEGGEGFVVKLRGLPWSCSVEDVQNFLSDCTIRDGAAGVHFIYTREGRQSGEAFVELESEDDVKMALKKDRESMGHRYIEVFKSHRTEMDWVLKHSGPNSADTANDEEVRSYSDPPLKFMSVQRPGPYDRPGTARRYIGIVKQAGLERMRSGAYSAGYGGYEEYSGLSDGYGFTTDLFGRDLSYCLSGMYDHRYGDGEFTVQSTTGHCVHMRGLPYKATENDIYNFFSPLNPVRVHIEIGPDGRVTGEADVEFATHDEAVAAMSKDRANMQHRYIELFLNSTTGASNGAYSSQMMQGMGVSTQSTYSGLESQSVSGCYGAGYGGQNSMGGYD

Measured: binding

HA-tagged PRRSV nucleocapsid (N) protein
binds: all assays above
